Test results published in PubChem BioAssay AID504834 (National Center for Advancing Translational Sciences (NCATS), 2011).
Out of some 320,000 compounds screened, about 22,000 (6.9%) were called active. This list was built around the results that the source calls inconclusive (neither active nor inactive); the mix of calls is not that of the screen. Calls follow the shape of the dose curve; as a rule, active = well fitted inhibition curve with a large enough effect; inconclusive = small, poorly fitted or top-dose-only effect, or another doubt; inactive = no such curve, though single readings can be large or run the other way. Potencies of inconclusive entries are doubtful fits and often do not repeat.

assay: Primary qHTS for delayed death inhibitors of the malarial parasite plastid, 96 hour incubation; conditions: P. falciparum luciferase reporter growth; series mostly up to 28.7 µM
Outline: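 Cell-based qHTS: luciferase-tagged P. falciparum in erythrocytes (2% hematocrit, 0.05% parasitemia final) incubated with compounds for 96 hours, 37 C, 5% CO2; luciferase detection reagent then added and luminescence measured.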
Potency is read from the fitted curve at half-maximal effect.

Structure (SMILES)	Potency
COC(=O)c1sccc1NC(=O)NC1CCCCC1	inactive
CCOC(=O)C1(CCOc2ccccc2)CCN(Cc2cccc(-n3cccn3)c2)CC1	active: 10.4 µM
CCc1ccccc1N(C(C)=O)c1nc(CCl)cs1	inconclusive: 0.522 µM [inhibitor, full curve, poor fit]
CCCOC(=O)c1cc(-c2ccc(C=O)o2)ccc1Cl	inconclusive: 0.0657 µM [inhibitor, full curve, poor fit]
COc1cc(C(=O)Nc2nnc(C)s2)c([N+](=O)[O-])cc1OC	inactive
CCOC(=O)c1c(NC(=O)C(c2ccccc2)c2ccccc2)sc2c1C1CCN2CC1	inconclusive: 2.62 µM [inhibitor, full curve, poor fit]
CCOc1ccc(NC(=O)CN(C)C(=O)c2ccccc2OCc2cccc(C)c2)cc1OCC	inconclusive: 11.7 µM [inhibitor, single point]
O=C(Nc1cccc(F)c1)C1C2C=CC3(CN(CCCN4CCOCC4)C(=O)C13)O2 (stereo unspecified)	inconclusive: 0.0586 µM [inhibitor, full curve, poor fit]
Cc1ccc2cc(C(c3nnnn3C3CCCC3)N(Cc3ccco3)Cc3cccs3)c(=O)[nH]c2c1 (stereo unspecified)	inconclusive: 5.22 µM [inhibitor, partial curve, poor fit]
COc1ccc(C2C(=O)N(C3CCCCC3)CC(=O)N2C2CCCCC2)cc1 (stereo unspecified)	inconclusive: 8.28 µM [inhibitor, partial curve, poor fit]
O=C(CCc1nc(-c2ccccc2Cl)no1)NCC1CCCO1 (stereo unspecified)	inconclusive: 18.5 µM [inhibitor, single point]
Cc1ccc(S(=O)(=O)CC(=O)Nc2nc(-c3ccccc3)cs2)cc1	inactive
O=C1Cn2c(nc3ccccc32)-c2ccccc2N1	inactive
O=S(=O)(Nc1ccc(Cl)c(Cl)c1)N1CCOCC1	active: 4.65 µM
COc1ccc(CCNC(=O)CCc2cc(OC)c(OC)c(OC)c2)cc1OC	inconclusive: 4.65 µM [inhibitor, partial curve]
O=C(Nc1cccc(NC(=O)c2sc3ccccc3c2Cl)c1)c1ccco1	inconclusive: 1.17 µM [inhibitor, partial curve, poor fit]
CCc1ccc(OC)c(S(=O)(=O)N2CCN(C(=O)c3ccco3)CC2)c1	inconclusive: 10.4 µM [inhibitor, single point]
CC(=O)Nc1ccc(S(=O)(=O)NCc2cccnc2)cc1	inconclusive: 11.7 µM [inhibitor, partial curve, poor fit]
CCC1(c2ccccc2)CCC(=O)NC1=O (stereo unspecified)	inconclusive: 19 µM [inhibitor, partial curve, poor fit]
COC(=O)N/N=C/c1cccs1	inconclusive: 1.85 µM [inhibitor, partial curve]
CC(=O)NC1=NN(C(C)=O)C(C)(CCS(=O)(=O)c2ccc(Br)cc2)S1 (stereo unspecified)	inconclusive: 1.31 µM [inhibitor, partial curve]
O=C(OCC(=O)N1CCCC1=O)c1cc2ccccc2o1	inactive
CC(C)Cn1c(N)c(C(=O)COC(=O)C2Cc3ccccc3CN2S(C)(=O)=O)c(=O)n(C)c1=O (stereo unspecified)	inconclusive: 18.5 µM [inhibitor, single point]
CCOC(CNC(=O)c1ccc2c(c1)nc(C)n2-c1cccc(F)c1)OCC	inactive

Structure (SMILES)	Potency
Cc1ccc(C2(C)NC(=O)N(CCOc3ccccc3)C2=O)cc1 (stereo unspecified)	inconclusive: 18.5 µM [inhibitor, single point]
COc1ccc(N2CCN(Cc3nc4c(c(=O)n(C)c(=O)n4C)n3Cc3cccc(C)c3)CC2)cc1	inconclusive: 3.7 µM [inhibitor, single point]
COc1ccc(C)cc1S(=O)(=O)Nc1ccc2c(c1)OCCO2	inconclusive: 11.7 µM [inhibitor, single point]
COc1ccc(S(=O)(=O)n2c([N+](=O)[O-])cnc2C)c(C)c1C	inconclusive: 18.5 µM [inhibitor, single point]
O=[N+]([O-])c1cccc(NC(=S)N2CCc3ccccc32)c1	inconclusive: 9.28 µM [inhibitor, single point]
CCOc1ccc(NC(=O)C23CC4CC(C2)CC(c2ccccc2)(C4)C3)cc1	active: 1.85 µM
Cc1cccc(N2CCN(C(=O)c3nn(C)c4c3CS(=O)(=O)c3ccccc3-4)CC2C)c1 (stereo unspecified)	inactive
COC(=O)c1nonc1NCn1nnc2ccccc21	inconclusive: 0.0066 µM [inhibitor, partial curve, poor fit]
COc1ccc(Nc2c3c(c(C#N)c4nc5ccccc5n24)CCC3)cc1	active: 9.28 µM
CC(C)c1ccc(OCC(=O)NNC(=O)c2cnccn2)cc1	active: 10.4 µM
CC(=O)Nc1ccc(S(=O)(=O)N2CCC(C(=O)NCc3cccnc3)CC2)cc1	inconclusive: 8.28 µM [inhibitor, partial curve]
O=C(CCC(=O)N1CCOc2ccccc21)NCCCN1CCN(Cc2ccccc2)CC1	inconclusive: 14.7 µM [inhibitor, single point]
C=CCOc1cccc(C(=O)N2CCCC(Nc3ccc4c(c3)OCCO4)C2)c1 (stereo unspecified)	inactive
CCOC(=O)Cn1nnnc1C(CC)N(Cc1ccccc1)Cc1cc2cc(C)ccc2[nH]c1=O (stereo unspecified)	inconclusive: 1.47 µM [inhibitor, full curve, poor fit]
COc1ccc(C(C(=O)NC2CCCC2)N(CCC(C)C)C(=O)CCC(=O)Nc2cc(C)on2)cc1 (stereo unspecified)	inactive
Cc1ccc(S(=O)(=O)/N=C(\N)Nc2nc(C)c3cc(C)ccc3n2)cc1	inconclusive: 20.8 µM [inhibitor, partial curve, poor fit]
CCCn1c(-c2cccs2)nc2ccccc21	inconclusive: 18.5 µM [inhibitor, single point]
COCC(C)NCc1ccccc1C (stereo unspecified)	active: 11.7 µM
Cc1c(Cl)cccc1NC(=O)CSc1nnc(C)n1CC1CCCO1 (stereo unspecified)	inconclusive: 10.4 µM [inhibitor, single point]
COc1ccc(Cn2c(=S)[nH]c3ccccc3c2=O)cc1	inconclusive: 16.5 µM [inhibitor, partial curve, poor fit]
Cc1noc2ncnc(N3CCN(c4cccc(Cl)c4)CC3)c12	inconclusive: 13.1 µM [inhibitor, partial curve]
Cc1ccccc1Nc1nnc(SCc2cc(=O)n3ccsc3n2)s1	active: 16.5 µM
Cc1ccc(/C=N/NC(=O)C2COc3ccccc3O2)s1 (stereo unspecified)	inactive
O=C(CSc1nc2ccccc2nc1SCC(=O)N1CCCCC1)N1CCCCC1	inconclusive: 2.62 µM [inhibitor, partial curve]

Structure (SMILES)	Potency
O=C(Nc1cnn(Cc2ccc(Cl)cc2)c1)c1cnccn1	inactive
CCOC(=O)c1ccc(S(=O)(=O)NNC(=O)COc2ccccc2C)cc1	inconclusive: 18.5 µM [inhibitor, single point]
COCCn1c(SCC(=O)N2CCCCCC2)nc2c(c1=O)SCC2	inconclusive: 1.65 µM [inhibitor, full curve, poor fit]
O=C(N/N=C1\CCS(=O)(=O)c2ccc(F)cc21)c1ccc(O)cc1	inconclusive: 5.22 µM [inhibitor, partial curve, poor fit]
CCN(c1cccc(C)c1)S(=O)(=O)c1cn(CC(=O)OC)c2ccc([N+](=O)[O-])cc12	inconclusive: 10.4 µM [inhibitor, partial curve]
O=C1OCCN1c1c(-c2ccccc2)c(-c2cccs2)nc2c(-c3ccccc3)cccc12	inconclusive: 0.0657 µM [inhibitor, full curve, poor fit]
COc1ccc(CC(NC(C)=O)C(=O)NC2CCN(C(=O)Nc3ccccc3Cl)CC2)cc1OC (stereo unspecified)	inactive
O=C(CSCc1ccc([N+](=O)[O-])cc1)N/N=C/c1ccncc1	inactive
Cc1ccc(C2N=C(N)Nc3nc(=O)c4ccccc4n32)cc1 (stereo unspecified)	active: 9.28 µM
CN1CCC(=O)N([C@H](CSc2ccccc2)c2ccccc2)CC1	inactive
Cc1cc(O)c(C(=O)/C=C/c2cccc([N+](=O)[O-])c2)c(=O)o1	inconclusive: 11.7 µM [inhibitor, single point]
O=C(COC(=O)c1cc(Br)ccc1O)NNC(=O)c1cccs1	inactive
CC(C)c1ccc(NC(=O)Cc2c(C(=O)O)n(C)c3ccccc23)cc1	inconclusive: 18.5 µM [inhibitor, single point]
CCCCOC(=O)CSc1nc2ccccc2o1	inactive
C[C@H](NC(=O)c1nc[nH]c1C(=O)NCc1ccc(CNC(=O)OC(C)(C)C)cc1)C(=O)OC(C)(C)C	active: 1.31 µM
COC(C[C@@H]1O[C@@H]1C(=O)COCc1ccccc1)OC	inactive
C[N+]1=C(/C=C/Nc2ccccc2Cl)C(C)(C)c2ccccc21	inconclusive: 1.85 µM [inhibitor, full curve]
CCCCCCCC[n+]1c(C)n(-c2ccccc2)c2ccc(NC(C)=O)cc21	inactive
CCCn1c(/C=C/c2cc[n+](C)cc2)nc2ccccc21	active: 13.1 µM
Cc1cc(C)c(C)c(S(=O)(=O)N2CCC(C(=O)NCCCN3CCCC3=O)CC2)c1C	inconclusive: 11.7 µM [inhibitor, partial curve, poor fit]
CC[n+]1c(/C=C/N(C)c2ccccc2)oc2ccc(Cl)cc21	inconclusive: 11.7 µM [inhibitor, single point]
CC1=NN(C(=O)COc2cc(C)ccc2C(C)C)C(O)(c2ccccc2)C1 (stereo unspecified)	inactive
COCCN(C(=O)Cc1cccs1)C(C(=O)NCc1ccc(OC)cc1)c1ccc(C(C)C)cc1 (stereo unspecified)	active: 2.94 µM

Single values from above:
Potency, CC[n+]1c(/C=C/N(C)c2ccccc2)oc2ccc(Cl)cc21 reads inconclusive: 11.7 µM [inhibitor, single point]
Potency, O=C(CSCc1ccc([N+](=O)[O-])cc1)N/N=C/c1ccncc1 reads inactive
Potency, COCCN(C(=O)Cc1cccs1)C(C(=O)NCc1ccc(OC)cc1)c1ccc(C(C)C)cc1 (stereo unspecified) reads active: 2.94 µM
Potency, Cc1ccc(C2N=C(N)Nc3nc(=O)c4ccccc4n32)cc1 (stereo unspecified) reads active: 9.28 µM
